Measurements reported in PubChem BioAssay AID1259405 (NCATS, 2018).
Here is an unselected part of about 50,000 reagents tested. About 4,000 of all reagents (8%) count as active. 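Mouse siRNA library applied to hamster cells; one well for each siRNA.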 The numbers tell different reagents against one gene apart.

- Screen: 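Silenced genes that increase secreted GFP made by CHO cells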 (primary screen)
- System: Chinese hamster CHO-K1 ovary cells with stable secreted eGFP expression
- Reagents: single siRNA against mouse genes, 0.8 pmol siRNA per well (2 µl of 400 nM stock)
- Time to read-out: 3 days
- Measurement: 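Per-well intracellular GFP measured by laser scanning cytometry, plus viability from ATP luminescence, each relative to plate median of non-targeting control wells, in %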
- Scale: GFP, % of control: higher = more GFP per well, higher productivity; viability (ATP), % of control: higher = more viable cells (more ATP)
- Rule for the call: 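a knock-down is called active if GFP reaches 120% or more of non-targeting control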

Gene	siRNA no.	GFP, % of control	viability (ATP), % of control	activity call
Dtx3l (deltex 3-like, E3 ubiquitin ligase)	1	58.9	37.7	inactive
Dtx3l (deltex 3-like, E3 ubiquitin ligase)	2	59.7	76.7	inactive
Lmcd1 (LIM and cysteine-rich domains 1)	1	59.9	70.1	inactive
Lmcd1 (LIM and cysteine-rich domains 1)	2	79.6	79.6	inactive
Lmcd1 (LIM and cysteine-rich domains 1)	3	81.2	68.3	inactive
Tmprss15 (transmembrane protease, serine 15)	1	98	85.9	inactive
Tmprss15 (transmembrane protease, serine 15)	2	75.2	41.6	inactive
Tmprss15 (transmembrane protease, serine 15)	3	84.6	59.2	inactive
Kansl2 (KAT8 regulatory NSL complex subunit 2)	1	58.7	95.7	inactive
Kansl2 (KAT8 regulatory NSL complex subunit 2)	2	74	102	inactive
Kansl2 (KAT8 regulatory NSL complex subunit 2)	3	58.6	89	inactive
Bpnt2 (3'(2'), 5'-bisphosphate nucleotidase 2)	1	89	93.7	inactive
Bpnt2 (3'(2'), 5'-bisphosphate nucleotidase 2)	2	78.5	90	inactive
Bpnt2 (3'(2'), 5'-bisphosphate nucleotidase 2)	3	67.9	89.8	inactive
Il16 (interleukin 16)	1	64.7	41.4	inactive
Il16 (interleukin 16)	2	36.9	48.8	inactive
Il16 (interleukin 16)	3	139	35.2	active
Vgll1 (vestigial like family member 1)	1	36	40.4	inactive
Vgll1 (vestigial like family member 1)	2	56.7	50.9	inactive
Vgll1 (vestigial like family member 1)	3	99	100	inactive
Zfp300 (zinc finger protein 300)	1	50.2	74	inactive
Zfp300 (zinc finger protein 300)	2	89.1	40	inactive
Zfp300 (zinc finger protein 300)	3	134	85.5	active
Gask1b (golgi associated kinase 1B)	1	69.5	72.2	inactive
Gask1b (golgi associated kinase 1B)	2	47.5	74.5	inactive
Gask1b (golgi associated kinase 1B)	3	67.5	57.5	inactive
Daam1 (dishevelled associated activator of morphogenesis 1)	1	102	76.2	inactive
Daam1 (dishevelled associated activator of morphogenesis 1)	2	72.1	73.1	inactive
Daam1 (dishevelled associated activator of morphogenesis 1)	3	75.7	77	inactive
3110040N11Rik (RIKEN cDNA 3110040N11 gene)	1	86.3	72.8	inactive
3110040N11Rik (RIKEN cDNA 3110040N11 gene)	2	81.4	100	inactive
3110040N11Rik (RIKEN cDNA 3110040N11 gene)	3	86.1	59	inactive
Psmd4 (proteasome (prosome, macropain) 26S subunit, non-ATPase, 4)	1	25.7	15.3	inactive
Psmd4 (proteasome (prosome, macropain) 26S subunit, non-ATPase, 4)	2	95.6	36.7	inactive
Psmd4 (proteasome (prosome, macropain) 26S subunit, non-ATPase, 4)	3	64.1	64.5	inactive
Nuf2 (NUF2, NDC80 kinetochore complex component)	1	61.6	81.1	inactive
Nuf2 (NUF2, NDC80 kinetochore complex component)	2	58.5	73.3	inactive
Nuf2 (NUF2, NDC80 kinetochore complex component)	3	86.2	102	inactive
Atp5if1 (ATP synthase inhibitory factor subunit 1)	1	81	74.9	inactive
Atp5if1 (ATP synthase inhibitory factor subunit 1)	2	86.2	106	inactive
Atp5if1 (ATP synthase inhibitory factor subunit 1)	3	43.3	68.9	inactive
Rps12 (ribosomal protein S12)	1	31.8	16.4	inactive
Rps12 (ribosomal protein S12)	2	45	20.6	inactive
Rps12 (ribosomal protein S12)	3	20.7	12.5	inactive
Or9s27 (olfactory receptor family 9 subfamily S member 27)	1	115	85.7	inactive
Or9s27 (olfactory receptor family 9 subfamily S member 27)	2	140	78.5	active
Or9s27 (olfactory receptor family 9 subfamily S member 27)	3	81.9	92.7	inactive
Bfar (bifunctional apoptosis regulator)	1	59.4	79.5	inactive
Bfar (bifunctional apoptosis regulator)	2	49	44.4	inactive
Bfar (bifunctional apoptosis regulator)	3	58.2	86.2	inactive
Bfar (bifunctional apoptosis regulator)	4	100	64.9	inactive
Bfar (bifunctional apoptosis regulator)	5	87.1	62.8	inactive
Bfar (bifunctional apoptosis regulator)	6	84	108	inactive
Syt13 (synaptotagmin XIII)	1	108	125	inactive
Syt13 (synaptotagmin XIII)	2	69.4	82.6	inactive
Tspan1 (tetraspanin 1)	1	30	39.9	inactive
Tspan1 (tetraspanin 1)	2	5.55	9.97	inactive
Tspan1 (tetraspanin 1)	3	74.8	74.6	inactive
Or52a24 (olfactory receptor family 52 subfamily A member 24)	1	60	73.7	inactive
Or52a24 (olfactory receptor family 52 subfamily A member 24)	2	70.3	77.4	inactive
Or52a24 (olfactory receptor family 52 subfamily A member 24)	3	102	101	inactive
Pomp (proteasome maturation protein)	1	64.8	57	inactive
Pomp (proteasome maturation protein)	2	14.6	7.62	inactive
Pomp (proteasome maturation protein)	3	9.82	3.98	inactive
Oxnad1 (oxidoreductase NAD-binding domain containing 1)	1	88.1	97.5	inactive
Oxnad1 (oxidoreductase NAD-binding domain containing 1)	2	70.3	71.3	inactive
Oxnad1 (oxidoreductase NAD-binding domain containing 1)	3	55.2	25.6	inactive
Retnlb (resistin like beta)	1	83.7	95	inactive
Retnlb (resistin like beta)	2	164	65.5	active
Retnlb (resistin like beta)	3	93.6	111	inactive
Ikzf2 (IKAROS family zinc finger 2)	1	114	83.1	inactive
Ikzf2 (IKAROS family zinc finger 2)	2	71	64.8	inactive
Syngr1 (synaptogyrin 1)	1	91	88.2	inactive
Syngr1 (synaptogyrin 1)	2	118	89.4	inactive
Syngr1 (synaptogyrin 1)	3	82.6	54.3	inactive
Trim8 (tripartite motif-containing 8)	1	79	114	inactive
Trim8 (tripartite motif-containing 8)	2	105	95.1	inactive
Trim8 (tripartite motif-containing 8)	3	112	134	inactive
Platr26 (pluripotency associated transcript 26)	1	43.3	91.4	inactive
Platr26 (pluripotency associated transcript 26)	2	40.2	65.6	inactive
Platr26 (pluripotency associated transcript 26)	3	104	64.7	inactive
Svil (supervillin)	1	66.3	62.2	inactive
Svil (supervillin)	2	45.7	55	inactive
Svil (supervillin)	3	69.5	77.1	inactive
Nup58 (nucleoporin 58)	1	74.8	66	inactive
Nup58 (nucleoporin 58)	2	72.2	86.9	inactive
Nup58 (nucleoporin 58)	3	95.2	45.2	inactive
Ccnl1 (cyclin L1)	1	64.4	86.4	inactive
Ccnl1 (cyclin L1)	2	86.9	124	inactive
Tmem98 (transmembrane protein 98)	1	77.2	68.7	inactive
Tmem98 (transmembrane protein 98)	2	89.2	91.8	inactive
Tmem98 (transmembrane protein 98)	3	148	175	active
Tmem98 (transmembrane protein 98)	4	148	175	active
Tmem98 (transmembrane protein 98)	5	83.8	80.9	inactive
Tmem98 (transmembrane protein 98)	6	98.4	82.8	inactive
Gnrh1 (gonadotropin releasing hormone 1)	1	53.9	30.1	inactive
Gnrh1 (gonadotropin releasing hormone 1)	2	43.5	28.7	inactive
Gnrh1 (gonadotropin releasing hormone 1)	3	61.9	72.5	inactive
Slc10a3	1	120	92.4	active
Slc10a3	2	78.2	75.9	inactive
Slc10a3	3	74.6	91.2	inactive
Rnase10 (ribonuclease, RNase A family, 10 (non-active))	1	26	46.5	inactive
Rnase10 (ribonuclease, RNase A family, 10 (non-active))	2	59.8	106	inactive
Rnase10 (ribonuclease, RNase A family, 10 (non-active))	3	49.8	31.9	inactive
Mb (myoglobin)	1	90	111	inactive
Mb (myoglobin)	2	141	83	active
Mb (myoglobin)	3	76.1	87	inactive
